PubChem BioAssay AID1053208, Peter MacCallum Cancer Centre | 2014

Test: 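Find knock-downs that sensitise mouse osteosarcoma cells to doxorubicin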 (primary screen)
Cell system: mouse osteosarcoma cells, early-passage culture from an engineered mouse model of fibroblastic bone tumour
Reagents: siRNA pool against mouse genes, 40 nM
Duration: about 120 h (48 h before drug, then 72 h with drug)
Challenge: doxorubicin 100 nM for 72 h, roughly 30-40% inhibitory dose
Detection: 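Luminescent ATP signal taken as viability with or without 100 nM doxorubicin for 72 h; mean of two wells set against non-targeting siRNA and turned into robust z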
Direction: viability z-score with doxorubicin: higher = more viable cells under doxorubicin; viability z-score without drug: higher = more viable cells with knock-down alone
Active means: 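Called active if knock-down leaves viability unchanged without drug (z within -2 to 2) but lowers it with doxorubicin (z at or under -2)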
The deposit covers about 17,000 reagents; shown is a part drawn at random. 788 of them (4.7%) were called active. 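Calls rest on z-score classes alone; an extra cut-off of viability at most 70% of control was not applied to them.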 Unmarked entries are inactive. Not all columns of the deposit are shown.

Zfp263 (zinc finger protein 263) → combined z-score class: no change with or without drug; viability z-score with doxorubicin: -1.12; viability z-score without drug: -0.51
Snrpa1 (small nuclear ribonucleoprotein polypeptide A') → combined z-score class: low cell count with and without drug; viability z-score with doxorubicin: -5.73; viability z-score without drug: -3.2
Dnajc30 (DnaJ heat shock protein family (Hsp40) member C30) → combined z-score class: no change with or without drug; viability z-score with doxorubicin: 0.56; viability z-score without drug: 0.51
Tlr6 (toll-like receptor 6) → combined z-score class: no change with or without drug; viability z-score with doxorubicin: 0.9; viability z-score without drug: 0
Il20ra (interleukin 20 receptor, alpha) → combined z-score class: no change with or without drug; viability z-score with doxorubicin: 0.9; viability z-score without drug: 1.35
Mrpl18 (mitochondrial ribosomal protein L18) → combined z-score class: low cell count without drug only; viability z-score with doxorubicin: -0.11; viability z-score without drug: -2.53
Stx2 (syntaxin 2) → combined z-score class: no change with or without drug; viability z-score with doxorubicin: 1.12; viability z-score without drug: 0.84
Zbtb7c (zinc finger and BTB domain containing 7C) → combined z-score class: no change with or without drug; viability z-score with doxorubicin: -0.11; viability z-score without drug: -0.17
Col1a2 (collagen, type I, alpha 2) → combined z-score class: no change with or without drug; viability z-score with doxorubicin: 1.12; viability z-score without drug: 1.52
Pde7a (phosphodiesterase 7A) → combined z-score class: no change with or without drug; viability z-score with doxorubicin: 0; viability z-score without drug: -0.17
Arhgef37 (Rho guanine nucleotide exchange factor 37) → combined z-score class: low cell count without drug only; viability z-score with doxorubicin: -0.67; viability z-score without drug: -2.19
Ccdc47 (coiled-coil domain containing 47) → combined z-score class: no change with or without drug; viability z-score with doxorubicin: 1.35; viability z-score without drug: 1.52
Tcerg1 (transcription elongation regulator 1 (CA150)) → combined z-score class: no change with or without drug; viability z-score with doxorubicin: 0.56; viability z-score without drug: 0.67
Cul2 (cullin 2) → combined z-score class: no change with or without drug; viability z-score with doxorubicin: -1.35; viability z-score without drug: -1.52
4930432E11Rik (RIKEN cDNA 4930432E11 gene) → combined z-score class: high cell count without drug only; viability z-score with doxorubicin: 0.9; viability z-score without drug: 2.02
Pcdh10 (protocadherin 10) → combined z-score class: no change with or without drug; viability z-score with doxorubicin: 0; viability z-score without drug: 0.51
Fads3 (fatty acid desaturase 3) → combined z-score class: no change with or without drug; viability z-score with doxorubicin: 0.56; viability z-score without drug: 0.84
Magix (MAGI family member, X-linked) → combined z-score class: low cell count with doxorubicin only (active); viability z-score with doxorubicin: -2.59; viability z-score without drug: -1.85
Rtn4ip1 (reticulon 4 interacting protein 1) → combined z-score class: high cell count with and without drug; viability z-score with doxorubicin: 2.59; viability z-score without drug: 2.19

Part of the list above, reformatted:
{"gene symbol": "Cul2 (cullin 2)", "combined z-score class": "no change with or without drug", "viability z-score with doxorubicin": -1.35, "viability z-score without drug": -1.52}
{"gene symbol": "4930432E11Rik (RIKEN cDNA 4930432E11 gene)", "combined z-score class": "high cell count without drug only", "viability z-score with doxorubicin": 0.9, "viability z-score without drug": 2.02}
